{"source": "patent US10745663B2", "about": "“Methods for modulating production profiles of recombinant proteins” (ARES TRADING S.A., priority 2015, dated 2020)", "system": "CHO-K1 cells expressing IgG1 mAb2", "format": "cell-based, Chinese hamster", "protocol": "Assays were performed with 2 CHO cell lines: • CHO-S cells expressing IgG1 mAb1, herein “Cells mAb1” or “mAb1 cells”. “mAb1” is a fully human monoclonal antibody directed against a soluble protein. Its isoelectric point (pI) is about 8.20-8.30. • CHO-K1 cells expressing IgG1 mAb2, herein “Cells mAb2” or “mAb2 cells”. “mAb2” is a humanised monoclonal antibody directed against a receptor found on the cell membrane. Its isoelectric point (pI) is about 9.30.\nCells expressing mAb2 were inoculated at 0.2×10^6 cells per milliliter (mL), whereas cells expressing mAb1 were inoculated at 0.3×10^6 cells per mL.\nAll assays were performed in fed-batch culture. The host cells were cultured in fed-batch system either in microplates (“Deep well plate”) or in Spin Tubes®, and incubated at 36.5° C., 90% relative humidity, 5% CO2 and 320 rpm shaking during 14 days.\nViable cell density and viability were measured with the Guava easyCyte® flow cytometer or with the ViCell.\nAntibody titres were measured either with the fortéBIO Octet® or with Biacore C®.\nGlycosylation profiles were established by capillary gel electrophoresis with laser-induced fluorescence (CGE-LIF). Dosages of aggregates and fragments were performed respectively via Size Exclusion High Performance Liquid Chromatography (SE-HPLC) and via SDS-capillary gel electrophoresis. […]", "data": [{"smiles": "O=S(=O)([O-])c1cc(N=C=S)ccc1/C=C/c1ccc(N=C=S)cc1S(=O)(=O)[O-].[Na+].[Na+]", "note": "[DIDS, 4,4′-diisothiocyanostilbene-2,2′-disulfonic acid]", "values": [{"measurement": "glycosylation profile of the antibody mAb2", "setting": "Spin tubes, CGE-LIF", "result": "did not vary"}, {"measurement": "percentage of fragments and aggregates", "setting": "mAb2, Spin tubes, SE-HPLC and SDS-capillary gel electrophoresis", "result": "slightly decreased"}]}]}
